Measurements reported in the supplement of paper PMC3334620.
In all, about 33,000 sequences were measured (“E-score (-0.5 to 0.5)”: median about -0.015, highest 2% from about 0.3 on). The list shows a part of the results.

What follows are sequences tested against T1, Abf1 (UniProt P14164) (assay: PBM E-score (8-mer binding enrichment) (E-score (-0.5 to 0.5)); higher = stronger / more preferred TF binding). Details: protein concentration: 200 nM; construct: GST-full length.
T1 sequence: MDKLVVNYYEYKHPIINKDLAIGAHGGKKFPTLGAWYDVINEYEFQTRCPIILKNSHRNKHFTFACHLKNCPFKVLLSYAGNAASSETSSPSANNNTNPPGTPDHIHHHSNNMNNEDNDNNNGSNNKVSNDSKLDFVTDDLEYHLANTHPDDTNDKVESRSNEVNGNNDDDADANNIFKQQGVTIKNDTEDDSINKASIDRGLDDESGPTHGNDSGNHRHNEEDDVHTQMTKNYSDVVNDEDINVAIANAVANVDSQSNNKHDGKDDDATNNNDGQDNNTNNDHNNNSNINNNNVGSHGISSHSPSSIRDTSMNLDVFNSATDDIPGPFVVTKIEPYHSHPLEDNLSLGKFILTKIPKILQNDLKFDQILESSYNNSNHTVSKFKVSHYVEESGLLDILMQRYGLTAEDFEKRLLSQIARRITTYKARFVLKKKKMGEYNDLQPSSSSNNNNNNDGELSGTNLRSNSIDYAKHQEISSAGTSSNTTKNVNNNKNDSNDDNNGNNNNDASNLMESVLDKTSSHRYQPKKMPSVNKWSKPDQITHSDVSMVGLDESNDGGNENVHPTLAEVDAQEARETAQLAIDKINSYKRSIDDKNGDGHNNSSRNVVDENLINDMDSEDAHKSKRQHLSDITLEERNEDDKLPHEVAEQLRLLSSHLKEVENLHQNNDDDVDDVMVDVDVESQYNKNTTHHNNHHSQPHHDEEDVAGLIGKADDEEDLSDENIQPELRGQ
Procedure: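 Universal 'all 10-mer' protein binding microarrays (Agilent AMADID 015681) probed with GST-tagged S. cerevisiae TFs (full-length or DBD) made by in vitro transcription/translation (PURExpress), about 100-200 nM. Bound TF was detected with fluorescent anti-GST. Each ungapped 8-mer (which stands for itself and its reverse complement) is scored by the PBM enrichment score (E-score), a modified Wilcoxon-Mann-Whitney statistic from -0.5 to +0.5, computed with the Universal PBM Analysis Suite. Scale: above 0.35 generally sequence-specific binding.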

Sequence | PBM E-score
CTACGTAA | 0.0361
ATGCCTGC | -0.204
AAGTTCGA | -0.141
CTTCTGCC | -0.128
GTTTGGCA | 0.132
AGCGACAA | 0.215
AAGGTTTG | 0.0201
GCCGTCAA | 0.258
CGAGCTTA | -0.0534
CCTGATCC | -0.0929
AAGCTTGT | -0.0896
AAATACCC | -0.00592
TATGGCAA | 0.0534
CCTATCTC | -0.104
CTGGAGCA | -0.115
GACGGCTC | -0.00134
AGGGCTCA | -0.145
ACAGTACT | -0.126
CTCCCGTC | 0.111
AATCGGGA | -0.103
CTATCGAC | 0.0621
GCAAAGCA | -0.184
GCTCGGCC | -0.243
AGTCAACT | -0.296
CTAGTGCA | 0.139

Sequence | PBM E-score
CTGTACGC | -0.106
GCCGAAAA | 0.173
GCCAAACA | -0.0646
TGTGCCAA | 0.0348
GCCGCACC | -0.0586
CCTGACAG | -0.0556
CCAAGCTC | -0.0331
CACAATAA | -0.112
CAGTATTC | 0.0329
CAATCGGC | -0.152
ACAAATTC | 0.0246
CTGATCAA | -0.114
CATCGGAG | -0.175
CCAGCAGA | -0.0609
CTGCAAGC | -0.0671
CCTCAATC | 0.152
ACATAATA | 0.278
GTGGGTGA | 0.237
GAAACCGA | -0.166
ACTGATGA | 0.19
GAATAGAC | -0.0579
CCAAAAGG | -0.0786
GTTGATCA | 0.298
AGCGTGTA | 0.119
ACAGTGTG | -0.128

Sequence | PBM E-score
AATCTAGG | 0.112
CAAAAGCG | -0.0911
ACAAAACT | 0.103
GGAATTCA | -0.0774
CAATGCTG | -0.193
GGAGTACA | -0.046
CTTGGCAA | -0.162
CACGGGGG | -0.147
TGACCTCA | 0.112
AATTCAGA | 0.0831
CGACAAAC | 0.167
CAGATCTG | -0.0978
AATTAAGT | 0.0643
GGCACGAA | 0.103
ACTGGAGC | -0.289
CGTCGTAC | 0.399
ATCTCATG | 0.081
CCTTGTCG | 0.0374
GGGACATA | -0.00523
AGGGCTCC | -0.336
CGAAAGCG | 0.0589
AGTTGGTA | 0.15
GCGACCCC | -0.171
ACTTGGCG | -0.134
AACTCAAG | -0.0847

Sequence | PBM E-score
ACCAGAGC | -0.162
AAGAATAG | 0.0587
AATGGAAC | 0.0939
AAGGAGCT | -0.221
CTACATGC | 0.186
GTCGTATA | 0.402
AATGCCAC | -0.0313
ATCTGGCA | 0.0875
CCAGACGA | 0.143
ACGGCAAG | 0.245
ACTTGGAA | -0.132
AAACTTCG | -0.00445
AACAGACG | -0.043
GCAAAGAC | -0.0514
ACAATAGT | 0.0954
AAGAATAA | -0.0188
ACATCGGC | -0.073
GCATTCAC | 0.133
ATGACAAA | 0.338
CGAGCTAG | 0.0588
CGTTTAAC | 0.254
ACTAAACT | 0.0386
AATTGGCT | -0.0373
ACCCGTTC | 0.188
AAGCCACC | -0.214

Taken from above:
Value for AGTTGGTA under PBM E-score: 0.15
Value for AGTCAACT under PBM E-score: -0.296
Value for AATTAAGT under PBM E-score: 0.0643
Value for ACAGTGTG under PBM E-score: -0.128
Value for CGTCGTAC under PBM E-score: 0.399

Additional entries follow:

Sequence | PBM E-score
CCTGAGAG | -0.352
CCCAACGG | -0.0471
AACCGCAT | 0.0846
ATCGCGAC | 0.206
AGTTCGCA | 0.0692
CGAAGGCG | -0.0596
GTGTCATA | 0.119
ATCTAACC | -0.0913
AGAGGACA | -0.132
CGAAAGGC | 0.106
GCGGCAGA | -0.0956
GACAGGCC | -0.0723
CTACTGTA | -0.201
TGGTCTAA | -0.185
CCCTACCA | 0.0127
AAAATTGA | 0.0528
AGTTTGCC | -0.0674
ATAGTTAA | 0.147
CGCCGGTC | -0.16
CCGAGCCC | -0.301
CGAAGCGC | -0.101
TACTCTCA | -0.144
GACAGCTC | -0.0862
GAAAGGAC | 0.0143
GTTGAGCA | -0.0847

Sequence | PBM E-score
GATTGTGA | 0.107
CCCAACCC | -0.21
CAGAACTA | -0.262
ACGCCACT | -0.224
TAAGCGGA | -0.127
CGTTAGCC | 0.0294
ATCCAATA | 0.131
AGCTACCG | -0.0848
AGTGTACG | 0.146
AAATAGGA | 0.12
AGAGGGTA | 0.0332
AACTGCTG | -0.0316
CGCAGCCG | -0.0971
CCGTTCTC | 0.217
CGCTCAAA | -0.142
CACTGACG | 0.0211
GATAATTA | 0.217
CCCCGGAG | -0.257
GTCACAAA | 0.103
AATTCTCT | -0.0531
AAGGCGCT | -0.0643
CGCTGCAA | 0.145
CAGTTTGA | -0.0226
ACACCTGT | -0.122
GCCGCTCC | -0.195

Sequence | PBM E-score
TATAAACA | -0.0416
CGCTGACG | -0.0675
TATGTGCA | -0.183
GTACCCTA | -0.0203
AACGTCTT | 0.169
GCATCAGA | 0.172
ACGAAACA | 0.245
AAATTAAA | 0.193
ACTGGCCA | -0.0393
GTCTCCGA | -0.223
AATCTGCC | -0.127
GTCTGCCA | 0.136
AACAACCT | -0.124
AACACGTC | 0.0164
AGGGTATC | -0.0493
ACACTCTC | -0.0865
AGCGAAAC | 0.0988
GCATCTCC | -0.255
GGTAGAAA | -0.119
CGCCAACC | -0.238
AGATATAT | 0.187
CCGCCACA | -0.165
